The values below come from publication PMC7819943, “Rice protein-binding microarrays: a tool to detect cis-acting elements near promoter regions in rice”.

Amino acid sequences for entries named in this document (tags omitted).
UniProt Q0JBA9, entry or part of it: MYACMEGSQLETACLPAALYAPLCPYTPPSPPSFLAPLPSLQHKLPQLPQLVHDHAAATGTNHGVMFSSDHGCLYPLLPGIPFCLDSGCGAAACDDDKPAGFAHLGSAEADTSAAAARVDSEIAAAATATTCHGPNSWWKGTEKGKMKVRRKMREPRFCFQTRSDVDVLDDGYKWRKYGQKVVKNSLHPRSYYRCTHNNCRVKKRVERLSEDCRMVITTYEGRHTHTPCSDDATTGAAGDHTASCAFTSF

The other results are listed elsewhere or left out.

The target of the experiment is OsWRKY34 (Oryza sativa, UniProt Q0JBA9 1-250). The experiment can be described thus: protein-binding microarray (RPBM); PBS, 2% BSA, 51.3 ng/ul salmon testes DNA, 50 uM zinc acetate, 200 nM TF, 25 C, 1 h; high values mean tight binding. As to conditions: protein: recombinant; tags: N-terminal polyhistidine and DsRed monomer fusion (pET32a); label: CyDye5-dUTP incorporated in the synthesized complementary strand; 3' TTTTT single-stranded linker to array surface; dsDNA, one strand shown. Put shortly:
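Per-feature fluorescence intensity (arbitrary units), read on an Axon 4000B scanner, is the binding signal. Transcription factors carrying an N-terminal polyhistidine tag and DsRed fusion were expressed in E. coli BL21-CodonPlus and purified on Ni–NTA. A custom Agilent array, made double-stranded by primer extension with Cy5-dUTP and blocked with 2% BSA, was incubated with 200 nM protein in PBS, 2% BSA, salmon testes DNA and 50 µM zinc acetate at 25 °C for 1 h and then washed.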
On to “ATGGACCAATTCCGTCTGATATTGGTCGTCTTGCTGAGCTCGGAGTCACCTAGTGCAG”, for which the binding signal was 8520 fluorescence intensity (a.u.).

For the sequence “CACGTTTTATAATGTGCCATCGACTTTTGCTTAACTTCTACGGAGTCACCTAGTGCAG”, the binding signal is 8300 fluorescence intensity (a.u.).

Consider “TCCCAACCTATCTTCCTCGTTTTCCACGCGCAGGCTTTTCCGGAGTCACCTAGTGCAG”, for which the binding signal is 9320 fluorescence intensity (a.u.).

In the case of “ATCTCGCGTATACCCTGGTTCCTGGTTTCATCAATCCCCACGGAGTCACCTAGTGCAG”, the binding signal is 10600 fluorescence intensity (a.u.).

Take “TGGGTATGTGATATGTGTGCGTGTGCTTGTTCCGTGTAATCGGAGTCACCTAGTGCAG”: the binding signal was 8550 fluorescence intensity (a.u.).

Take “AGCGCTTTGCTGCCGCCGTCGTCTTGCCTTCACCGCTAAGCGGAGTCACCTAGTGCAG”: the binding signal is 10100 fluorescence intensity (a.u.).

For “CATCTTTATTCTGTTTCTTGATGTGCTTCCTATGTATCACCGGAGTCACCTAGTGCAG”, the binding signal was 13300 fluorescence intensity (a.u.).

Consider “AGCTACACAATTTGAAACATACACGCAATCCTTTGTCTCACGGAGTCACCTAGTGCAG”, for which the binding signal is 9840 fluorescence intensity (a.u.).

For “GTTGGTGGTAGTGGATGGTGTTTCTTTTTTATTCCATTTGCGGAGTCACCTAGTGCAG”, the binding signal is 12200 fluorescence intensity (a.u.).

On to “GCATTTTCTGTCCGTATCCAAGTCGTTTTCTGCGTAAGCACGGAGTCACCTAGTGCAG”, for which the binding signal was 8760 fluorescence intensity (a.u.).

Regarding “TCTCCCGTTGTCTTGTCTTCTCTTCGCACCCTAAGATTTCCGGAGTCACCTAGTGCAG”, the binding signal is 13900 fluorescence intensity (a.u.).

In the case of “TCTCTAATCTATTGCCTCGTTTTTCTCTATAGACTATCTCCGGAGTCACCTAGTGCAG”, the binding signal is 9650 fluorescence intensity (a.u.).

For the sequence “TCCTCCAATTCAAATGGCCCTTATATAGTTGTAGAATCTTCGGAGTCACCTAGTGCAG”, the binding signal was 8050 fluorescence intensity (a.u.).

Turning to “AACTTGGTGTATGCACAATCACACACCTTGCCATCTAATTCGGAGTCACCTAGTGCAG”, the binding signal was 8720 fluorescence intensity (a.u.).

With “ACTTGTCCTTGATCCTGCCCCACTTCGGATTGTCAATCGACGGAGTCACCTAGTGCAG”, the binding signal is 8730 fluorescence intensity (a.u.).

As to “TATTTTTAAAAAAGTCAACGGCGTCTTGTGGGATGGAGGGCGGAGTCACCTAGTGCAG”, the binding signal was 21300 fluorescence intensity (a.u.).

Consider “TATTGCTAACGTACATGCACCCAATTTTGGTCATTACTATCGGAGTCACCTAGTGCAG”, for which the binding signal was 8340 fluorescence intensity (a.u.).

Regarding “ATTAAAAAGTCAACGGTGTCAAACATTTTGAAATGGAGGGCGGAGTCACCTAGTGCAG”, the binding signal is 10300 fluorescence intensity (a.u.).

Turning to “GTTGTATGTATCACAGCTCTTTCATAACTCGTACCATTTTCGGAGTCACCTAGTGCAG”, the binding signal was 11700 fluorescence intensity (a.u.).

With “CTACGCTTTCCCACTTCTACTCGCTCTAACTTCTACTCGACGGAGTCACCTAGTGCAG”, the binding signal is 10700 fluorescence intensity (a.u.).

With “GGACCCACCCGGCCATCCACGTGACTAGTTGTACATTTTCCGGAGTCACCTAGTGCAG”, the binding signal is 14200 fluorescence intensity (a.u.).

Take “GTTAGTGGTTGATGGTAGTATGAGGAGTTTGTTGTTAACACGGAGTCACCTAGTGCAG”: the binding signal was 8670 fluorescence intensity (a.u.).

As for “TAAGTTTTTGTTTGCCACGTTTAACCACTCGTCTTATTCACGGAGTCACCTAGTGCAG”, the binding signal was 14600 fluorescence intensity (a.u.).

Regarding “CCTTCTGTCTCCACCCTCATCCAGCGATCCAAAGCCCAACCGGAGTCACCTAGTGCAG”, the binding signal is 8820 fluorescence intensity (a.u.).

Turning to “CTTATCTCATTTTATCTCGGTTTTTGTTAACTTGTTTTTTCGGAGTCACCTAGTGCAG”, the binding signal is 18200 fluorescence intensity (a.u.).

As for “ACTTTATAAAGGGTCCCACAGTGTTTCCCATCTCCTCTGTCGGAGTCACCTAGTGCAG”, the binding signal was 8210 fluorescence intensity (a.u.).

Turning to “AATATGGACTGCATGTGTTTGTGATCCCTTTCTTCTCATGCGGAGTCACCTAGTGCAG”, the binding signal was 9200 fluorescence intensity (a.u.).

“ATCGTCCCCAAATACATTTCACCGATTTGACTTGAATACACGGAGTCACCTAGTGCAG”: the binding signal was 8080 fluorescence intensity (a.u.).

“TTTCCCGAAATTTCGCTTCTATCCGATTTTTTTTCGCAATCGGAGTCACCTAGTGCAG”: the binding signal was 10900 fluorescence intensity (a.u.).

For the sequence “GCCTTCCGCGCCCGCTTCCGCGCAACCCACCGGGCGCCATCGGAGTCACCTAGTGCAG”, the binding signal is 8610 fluorescence intensity (a.u.).

As to “CACTCTCTCCGGAAGGCCCAAACCGCAGCTCAACGCTTCTCGGAGTCACCTAGTGCAG”, the binding signal was 8670 fluorescence intensity (a.u.).

On to “GCACCCCTGTTTTCTCAGCGATCATGGCTGTAATACTGAACGGAGTCACCTAGTGCAG”, for which the binding signal was 8070 fluorescence intensity (a.u.).

With “GTGTTTGCCTATGATTTTTGTAGCTACCATGACTGAAAAACGGAGTCACCTAGTGCAG”, the binding signal was 8970 fluorescence intensity (a.u.).

Take “GCGCCGTTGTTCTTCCTGCCACATCCATCCTGGTGAGCACCGGAGTCACCTAGTGCAG”: the binding signal is 12700 fluorescence intensity (a.u.).

In the case of “CGAGGGAGAGGTGCGGTGGGGCGTAATTAGGCGGAGAGATCGGAGTCACCTAGTGCAG”, the binding signal is 9460 fluorescence intensity (a.u.).

For the sequence “ATTGTATACTGCTGAGTTGTTTTATCACTGTATTTATTGCCGGAGTCACCTAGTGCAG”, the binding signal was 11300 fluorescence intensity (a.u.).

Turning to “CTCAAGTATATCCTTTCTTTAACTTTATTAGGTTGAACTTCGGAGTCACCTAGTGCAG”, the binding signal was 8250 fluorescence intensity (a.u.).

With “TCCATATGCCACCACTCAGCTCCTGATTCCCCGAATTATACGGAGTCACCTAGTGCAG”, the binding signal is 8740 fluorescence intensity (a.u.).

For “AGGTACAGTCGGGGCGGGTGCAGGGGTACCAACTCGGAGTCGGAGTCACCTAGTGCAG”, the binding signal was 13900 fluorescence intensity (a.u.).

Consider “CTTATCCCAATTTTAAGCTTCTCCAGACTTTGGGCGCGCTCGGAGTCACCTAGTGCAG”, for which the binding signal is 8540 fluorescence intensity (a.u.).

“GCTCGCTGGCCGGTTCACCCACATCCTCAGCCGTCCATCACGGAGTCACCTAGTGCAG”: the binding signal is 9860 fluorescence intensity (a.u.).

For “TCGGAGACCACCTCCACCTCCACCTCCTCCACCACCTTCGCGGAGTCACCTAGTGCAG”, the binding signal is 8190 fluorescence intensity (a.u.).
